Measurements from patent US11883434B2, “Extracellular vesicles and methods of using” (NUtech Ventures, priority 2017, dated 2024).
Where two headings read alike, the source gives them in different places. Some results were stated once for a whole list of compounds, not compound by compound.

Test system: human colon carcinoma Caco-2 cells
Assay type: cell-based
Protocol: Caco-2 cells and IEC-6 cells were seeded at a density of 20,000 and 7000 cells/well, respectively, in 96-well plates, and allowed to adhere for 48 h, when cells were 75% confluent. The exosomes were labeled with the fluorophore, FM 4-64 (Molecular Probes). One microliter of a stock solution of FM 4-64 (5.9 mmol/L) was added to 1 mL of exosome suspension and incubated for 15 min at 37° C., and excess FM 4-64 was removed by ultracentrifugation at 120,000 3 g at 4° C. for 90 min. […] Assays were calibrated by quantifying the fluorescence of a known mass of exosomes labeled with FM 4-64. Exosome uptake was analyzed by measuring the cell fluorescence at 515 (excitation) and 640 nm (emission) using a Biotek FLx800 plate reader (BioTek Instru-ments). Fluorescence readings were corrected for cell autofluorescence by subtracting signals measured in cells incubated with exosome-depleted media. […] In Caco-2 cells, exosome uptake was linear for up to 120 min if transport was measured using nonsaturating substrate concentrations (FIG. 33A): y=0.0012x+0.014 (r2=0.97; P<0.05). In IEC-6 cells exosome uptake was linear for only up to 60 min if transport was measured using nonsaturating substrate concentrations (FIG. 33B): y=0.0033x+0.033 (r2=0.75; P<0.05). […]

B1: Arg-C: Cysteine protease cleaving at arginine and lysine (protein, UniProt P09870 51-181; P09870 191-526, looked up)
Clostripain light chain: NKNQKVTIMYYCDADNNLEGSLLNDIEEMKTGYKDSPNLNLIALVDRSPRYSSDEKVLGEDFSDTRLYKIEHNKANRLDGKNEFPEISTTSKYEANMGDPEVLKKFIDYCKSNYEADKYVLIMANHGGGAR
Clostripain heavy chain: AICWDDSNLDKNGEADCLYMGEISDHLTEKQSVDLLAFDACLMGTAEVAYQYRPGNGGFSADTLVASSPVVWGPGFKYDKIFDRIKAGGGTNNEDDLTLGGKEQNFDPATITNEQLGALFVEEQRDSTHANGRYDQHLSFYDLKKAESVKRAIDNLAVNLSNENKKSEIEKLRGSGIHTDLMHYFDEYSEGEWVEYPYFDVYDLCEKINKSENFSSKTKDLASNAMNKLNEMIVYSFGDPSNNFKEGKNGLSIFLPNGDKKYSTYYTSTKIPHWTMQSWYNSIDTVKYGLNPYGKLSWCKDGQDPEINKVGNWFELLDSWFDKTNDVTGGVNHYQW
decrease of exosome uptake (Caco-2 cells treated with the labelled agent): greater than 50% | decrease of exosome uptake (exosomes treated with the labelled agent): greater than 50%
